Results reported in article PMC9174887.
No constants are given. Whether binding was seen depends on the method and setting. For some of these results: In cells and extracts the contact can be indirect. Some binding calls cover weakened binding; strength is not graded here. Where a sequence is shown, tags or fusion partners need not be part of it.

By UniProt entry, the sequences of proteins in these tests, tags left out.
UniProt Q9ULZ3: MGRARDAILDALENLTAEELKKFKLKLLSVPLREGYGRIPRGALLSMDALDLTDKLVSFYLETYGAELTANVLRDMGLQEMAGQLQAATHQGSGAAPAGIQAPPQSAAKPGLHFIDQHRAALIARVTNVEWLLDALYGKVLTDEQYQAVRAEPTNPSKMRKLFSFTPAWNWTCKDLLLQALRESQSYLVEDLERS

T1: HA-tagged VHH_(mASC) (JT-01-A09), expressed in HEK 293T cells (alpaca)
T1 sequence (VHH): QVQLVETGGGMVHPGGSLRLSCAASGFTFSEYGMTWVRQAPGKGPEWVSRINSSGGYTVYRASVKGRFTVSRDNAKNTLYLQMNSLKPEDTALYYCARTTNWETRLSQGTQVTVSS

T2: recombinant murine ASC as an eGFP fusion (mouse) (UniProt Q9EPB4)
T2 sequence: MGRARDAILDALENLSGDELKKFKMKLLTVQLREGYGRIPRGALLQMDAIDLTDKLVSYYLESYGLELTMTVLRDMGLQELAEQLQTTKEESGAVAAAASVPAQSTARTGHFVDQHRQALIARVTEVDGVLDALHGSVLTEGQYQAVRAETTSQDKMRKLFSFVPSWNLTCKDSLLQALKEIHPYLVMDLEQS

B1: recombinant HA-tagged VHH_(mASC) (JT-01-A09) (VHH)
VHH: T1 sequence (VHH)
B2: pyrin domain of mouse ASC fused to Renilla luciferase (domain or fragment, UniProt Q9EPB4 1-91)
chain: MGRARDAILDALENLSGDELKKFKMKLLTVQLREGYGRIPRGALLQMDAIDLTDKLVSYYLESYGLELTMTVLRDMGLQELAEQLQTTKEE
B3: CARD of mouse ASC fused to Renilla luciferase (domain or fragment, UniProt Q9EPB4 105-193)
chain: STARTGHFVDQHRQALIARVTEVDGVLDALHGSVLTEGQYQAVRAETTSQDKMRKLFSFVPSWNLTCKDSLLQALKEIHPYLVMDLEQS

How the values were obtained:
[1] = molecular target: T1, HA-tagged VHH_(mASC) (JT-01-A09), expressed in HEK 293T cells (alpaca); assay: co-IP; LUMIER assay: lysates of co-transfected HEK 293T cells; HA-tagged VHH captured on plates coated with anti-HA.11, 4°C, 3 h; 50 mM Hepes pH 7.9, 150 mM NaCl, 2 mM EDTA, 0.5% Triton X-100, 5% glycerol; co-precipitated Renilla luciferase activity normalised to input
[2] = molecular target: T2, recombinant murine ASC as an eGFP fusion (mouse); assay: ELISA; recombinant eGFP-mASC or eGFP alone coated at 1 µg/ml; HA-tagged VHHs at 100 nM; detected with anti-HA-HRP and TMB, absorbance at 450 nm; both purified

Molecule | binding [1] | binding [2]
human ASC fused to Renilla luciferase (from UniProt Q9ULZ3 1-195) | no binding | –
B1 | – | binds
B2 | binds | –
B3 | no binding | –
